{"source": "PubChem BioAssay AID2685", "about": "(National Center for Advancing Translational Sciences (NCATS), 2010)", "note": "The campaign covered roughly 320,000 compounds. About 2,100 (0.66%) were called active. The shares of active, inactive and inconclusive entries below differ from those in the screen. Calls follow the shape of the dose curve; as a rule, active = well fitted inhibition curve with a large enough effect in the signal ratio, with a control signal flat (not every such curve was filed as active); inconclusive = small, poorly fitted or top-dose-only effect, or effect the other way, or a change in a side signal; inactive = flat fitted curve, though single readings scatter; the % refers to the signal ratio. Potencies of inconclusive entries are doubtful fits and often do not repeat. % is scaled to controls: 0 for no effect and ±100 for the full control effect; potency is read from the fitted curve at half-maximal effect."}
{"assay": "qHTS Assay for Lipid Storage Modulators in Drosophila S3 Cells", "details": "BODIPY lipid droplet fluorescence, 18-24 h, cells fed with added oleic acid; lipid storage change, negative = inhibition: at 46.1 µM (top of the series) unless noted", "summary_of_the_method": "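Drosophila S3 cells got compounds at several concentrations plus oleic acid (400 uM solution). Laser-scanning cytometry with 488 nm excitation read lipid droplets at 500-530 nm and cells at 575-640 nm. Percent activity was relative to 20 uM Triacsin C.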"}
{"molecule": "COc1ccccc1-n1c(=S)[nH]c2c(sc(=S)n2-c2ccccc2)c1=O", "lipid storage change, negative = inhibition": "inconclusive: -1.36%"}
{"molecule": "O=C(Nc1ccccc1)c1cc(S(=O)(=O)N2CCSCC2)ccc1Cl", "lipid storage change, negative = inhibition": "inconclusive: 11.7%"}
{"molecule": "CC(NC(=O)C1CCN(C(=O)Nc2ccccc2)CC1)c1ccccc1Cl", "note": "(stereo not given)", "Potency": "inconclusive: 0.651 µM [falling, single point]"}
{"molecule": "CNc1c([N+](=O)[O-])cnn1-c1ccccc1Cl", "lipid storage change, negative = inhibition": "inconclusive: -28.9%"}
{"molecule": "CN(C)c1nc(Oc2ccc(=O)[nH]n2)nc(N2CCCCC2)n1", "lipid storage change, negative = inhibition": "inconclusive: 14.8%"}
{"molecule": "CC(C)c1ccc(CN2CCN(C(=O)CSc3nnnn3C3CC3)CC2)cc1", "Potency": "inconclusive: 18.4 µM [falling, single point]"}
{"molecule": "Cc1nn(-c2ccccc2)cc1C(c1c(N)[nH]c(=S)[nH]c1=O)c1c(N)[nH]c(=S)[nH]c1=O", "lipid storage change, negative = inhibition": "inconclusive: 19.9% [at 9.22 µM]"}
{"molecule": "CCc1noc(C)c1C(=O)Nc1ccc(F)c(F)c1F", "lipid storage change, negative = inhibition": "inactive"}
{"molecule": "COc1ccccc1N1CCN(C(=O)c2c(-c3ccccc3)noc2C)CC1", "lipid storage change, negative = inhibition": "inconclusive: -37.2%"}
{"molecule": "Cn1nnnc1SCC(=O)NC1CCCc2ccccc21", "note": "(stereo not given)", "lipid storage change, negative = inhibition": "inconclusive: -21.3%"}
{"molecule": "O=S(=O)(/C=C/c1ccccc1)N1CCN(c2nc(-c3cccnc3)nc3ccccc23)CC1", "lipid storage change, negative = inhibition": "inconclusive: 17.6% [at 9.22 µM]"}
{"molecule": "Cc1cc(C)n(CC(=O)NNC(=O)CCCOc2ccc(Cl)c(C)c2)n1", "lipid storage change, negative = inhibition": "inconclusive: -3.58%"}
{"molecule": "O=C(N1CCN(c2ccccc2)CC1)C1(c2cccs2)CCOCC1", "lipid storage change, negative = inhibition": "inconclusive: 15.6%"}
{"molecule": "CCOC(=O)CC(NC(=O)c1cccs1)c1ccc(C)cc1", "note": "(stereo not given)", "lipid storage change, negative = inhibition": "inconclusive: -10.7%"}
{"molecule": "CCOc1ccc(S(=O)(=O)N2CCCC(C(=O)N3CCOCC3)C2)cc1C", "note": "(stereo not given)", "Potency": "active: 2.31 µM"}
{"molecule": "COC(=O)COc1ccc(S(=O)(=O)Nc2ccc(C(N)=O)cc2)cc1", "lipid storage change, negative = inhibition": "inactive"}
{"molecule": "COc1cccc(CNC(=O)c2ccccc2-c2ccccc2)c1", "lipid storage change, negative = inhibition": "inconclusive: 12.4%"}
{"molecule": "Cc1cc(C)cc(NC(=O)Cn2nnc3ccccc3c2=O)c1", "lipid storage change, negative = inhibition": "inconclusive: 58.5%"}
{"molecule": "COc1ccccc1NC(=O)CSc1nnc(-c2ccccc2)o1", "Potency": "inconclusive: 0.58 µM [activator, single point]"}
{"molecule": "O=C1c2ccccc2C(=O)N1OCc1ccccc1[N+](=O)[O-]", "lipid storage change, negative = inhibition": "inconclusive: -30.6% [at 0.369 µM]"}
{"molecule": "Cc1ccc(S(=O)(=O)N2CCN(CC(=O)NC(=O)NCc3ccco3)CC2)cc1C", "lipid storage change, negative = inhibition": "inconclusive: 23.7%"}
{"molecule": "Cc1sc2nc(SCc3ccccc3)n(Cc3ccco3)c(=O)c2c1C", "Potency": "inconclusive: 25.9 µM [rising, partial curve]"}
{"molecule": "CCOc1ccc(C(=O)N2CCN(c3cccc(Cl)c3)CC2)cc1", "lipid storage change, negative = inhibition": "inconclusive: 12.4%"}
{"molecule": "COc1ccccc1N1CCN(C(CNC(=O)c2ccco2)c2cccnc2)CC1", "note": "(stereo not given)", "Potency": "inconclusive: 0.651 µM [activator, partial curve]"}
{"molecule": "COc1ccc(CCNC(=O)C2CCCN(c3nn4c(=O)cc(C)nc4s3)C2)cc1OC", "note": "(stereo not given)", "lipid storage change, negative = inhibition": "inconclusive: -11.8%"}
{"molecule": "COc1ccccc1OCC(=O)N(Cc1nc(-c2ccc(Cl)cc2)no1)C(C)C", "lipid storage change, negative = inhibition": "inconclusive: 16.2% [at 9.22 µM]"}
{"molecule": "CC[C@H](C)C(C(=O)N1CCN(C(=O)OC(C)(C)C)CC1)n1cc(C(CC(C)C)NC(=O)OC(C)(C)C)nn1", "note": "(stereo not given in full)", "Potency": "inconclusive: 10.3 µM [falling, partial curve]"}
{"molecule": "Nc1cc(OC(=O)c2ccccc2Br)nn1S(=O)(=O)c1ccccc1", "lipid storage change, negative = inhibition": "inconclusive: -7.74%"}
{"molecule": "CC12CCC(C(=O)N(NC(=O)c3cc(Cl)ccc3O)C1=O)C2(C)C", "note": "(stereo not given)", "lipid storage change, negative = inhibition": "inconclusive: 3%"}
{"molecule": "O=C(NC(=S)Nc1ccc(N2CCOCC2)cc1)c1ccc(Cl)cc1", "lipid storage change, negative = inhibition": "inconclusive: -31.2%"}
{"molecule": "O=[N+]([O-])c1ccc(C[n+]2cccc3ccccc32)cc1", "lipid storage change, negative = inhibition": "inconclusive: -45.6%"}
{"molecule": "Nc1c(C(=O)NCc2ccco2)nnn1Cc1ccccc1", "Potency": "inconclusive: 29.1 µM [rising, single point]"}
{"molecule": "Cc1cccc(OCCC(=O)Nc2ccc(N3CCOCC3)cc2N2CCOCC2)c1", "lipid storage change, negative = inhibition": "inconclusive: 10.2%"}
{"molecule": "CCOC(=O)CC1CCCCN1Cc1cn(C)nc1-c1ccc2c(c1)OCCO2", "note": "(stereo not given)", "lipid storage change, negative = inhibition": "inconclusive: -0.153%"}
{"molecule": "CSc1ccc(/C=C/C(=O)OCC(=O)c2ccc[nH]2)cc1", "lipid storage change, negative = inhibition": "inconclusive: 17.4%"}
{"molecule": "CC(C)C(=O)Nc1cccc(NC(=O)c2cccc(F)c2)c1", "lipid storage change, negative = inhibition": "inconclusive: -1.78%"}
{"molecule": "COc1oc(-c2ccccc2C)nc1C(F)(F)F", "lipid storage change, negative = inhibition": "inconclusive: -52% [at 0.0737 µM]"}
{"molecule": "COc1ccc(C(=O)c2coc3ccc(O)c(CN(C)C)c23)cc1", "Potency": "inconclusive: 2.31 µM [falling, single point]"}
{"molecule": "O=C1CCCN1c1ccc(S(=O)(=O)Nc2cccnc2)cc1", "lipid storage change, negative = inhibition": "inconclusive: 24.6%"}
{"molecule": "COc1ccc(CCNC(=O)c2ccccc2OCc2ccccc2)cc1", "lipid storage change, negative = inhibition": "inconclusive: -34.1%"}
{"molecule": "O=C(NCc1ccco1)c1cc(-c2ccco2)on1", "Potency": "inconclusive: 18.4 µM [activator, single point]"}
{"molecule": "Cc1ccc(CN2CCNC(=O)C2CC(=O)O)cc1", "note": "(stereo not given)", "lipid storage change, negative = inhibition": "inconclusive: -42%"}
{"molecule": "COc1ccc(CCNC(=O)Cn2nc(C)n3nc(-c4ccccc4)cc3c2=O)cc1OC", "lipid storage change, negative = inhibition": "inconclusive: -58.6%"}
{"molecule": "Cc1noc(NS(=O)(=O)c2ccc(N/C=C\\C(=O)c3ccncc3)cc2)c1C", "lipid storage change, negative = inhibition": "inconclusive: 30.8%"}
{"molecule": "O=C1NC(c2cccs2)C(C(=O)c2ccccc2)C(O)(C(F)(F)F)N1", "note": "(stereo not given)", "Potency": "inconclusive: 0.461 µM [activator, single point]"}
{"molecule": "CCNC(=O)/C(C#N)=C/c1c(N2CCN(c3ccccc3)CC2)nc2c(C)cccn2c1=O", "lipid storage change, negative = inhibition": "inconclusive: -0.59%"}
{"molecule": "O=C(C1CCN(S(=O)(=O)c2ccccc2)CC1)N1CCN(Cc2ccccc2)CC1", "lipid storage change, negative = inhibition": "inconclusive: 56.2%"}
{"molecule": "COCCNC(=O)[C@H]1C[C@@H]1[C@H](NP(=O)(c1ccccc1)c1ccccc1)c1ccccc1", "lipid storage change, negative = inhibition": "inconclusive: 9.74%"}
{"molecule": "CC1CCN(CCCN2C(=O)C3C(C(=O)Nc4ccc(Cl)cc4)C4C=CC3(O4)C2C(=O)NC2CCCCC2)CC1", "note": "(stereo not given)", "Potency": "inconclusive: 1.46 µM [falling, partial curve, poor fit]"}
{"molecule": "CCOC(=O)CSc1nnc(CNc2ccc(F)cc2)o1", "Potency": "inconclusive: 29.1 µM [falling, single point]"}
{"molecule": "COc1ccccc1C(=O)C1CCCN(C(=O)c2ccccn2)C1", "note": "(stereo not given)", "lipid storage change, negative = inhibition": "inconclusive: 1.38%"}
{"molecule": "O=[N+]([O-])c1ccc(S(=O)(=O)N2CCN(c3ccnc4cc(Cl)ccc34)CC2)cc1", "lipid storage change, negative = inhibition": "inconclusive: -33.6%"}
{"molecule": "Cn1c(=O)c2ncn(CC(=O)N/N=C/C=C/c3ccccc3)c2n(C)c1=O", "lipid storage change, negative = inhibition": "inconclusive: -24.6%"}
{"molecule": "O=C(CSc1ccc2ccccc2c1)NCc1cccs1", "lipid storage change, negative = inhibition": "inconclusive: 11.7%"}
{"molecule": "Cn1c(-c2ccc([N+](=O)[O-])cc2)nc2ccccc21", "Potency": "inconclusive: 0.651 µM [falling, single point]"}
{"molecule": "Cn1c(=O)c(C(=O)COC(=O)c2cc(-c3ccco3)nc3ccccc23)c(N)n(Cc2ccccc2)c1=O", "Potency": "inconclusive: 2.31 µM [activator, full curve]"}
{"molecule": "CCN(CC)c1ccc(/C=N/NC(=S)NCc2ccccc2)c(O)c1", "Potency": "active: 11.6 µM"}
{"molecule": "COc1cccc2c1OCC(CN1CCN(CCC(C)C)C(CCO)C1)=C2", "note": "(stereo not given)", "lipid storage change, negative = inhibition": "inconclusive: -13.8%"}
{"molecule": "CSCc1c(C(=O)Nc2ccccc2N2CCOCC2)oc2ccccc12", "lipid storage change, negative = inhibition": "inconclusive: 15.4%"}
{"molecule": "CCN(CC)c1ccc(CNc2nc3ccccc3n2CCN2CCCCC2)cc1", "Potency": "inconclusive: 35.5 µM [cytotoxic, single point]"}
{"molecule": "Nc1ccnn1-c1ccccc1", "lipid storage change, negative = inhibition": "inconclusive: -42.8%"}
{"molecule": "Brc1ccc(-c2nnc(Cc3ccccc3)o2)cc1", "lipid storage change, negative = inhibition": "inconclusive: 14.6%"}
{"molecule": "COc1ccc(-c2csc(NC(=S)NC(=O)c3cccs3)n2)cc1OC", "Potency": "inconclusive: 0.0259 µM [activator, full curve, poor fit]"}
{"molecule": "CCN(c1ccccc1)S(=O)(=O)c1ccc(NC(=O)c2ccco2)cc1", "lipid storage change, negative = inhibition": "inconclusive: -27.5%"}
{"molecule": "CCSc1ncnc2sc3c(c12)CCC3", "lipid storage change, negative = inhibition": "inconclusive: 38.1%"}
{"molecule": "CCOC(=O)c1nnn(-c2ccc([N+](=O)[O-])cc2[N+](=O)[O-])c1C", "lipid storage change, negative = inhibition": "inconclusive: -22.1%"}
{"molecule": "CCOCCCNC(=O)CSc1ccccc1", "lipid storage change, negative = inhibition": "inconclusive: -11%"}
{"molecule": "Cc1ccc(-c2csc(NC(=O)c3ccccc3F)c2C(=O)O)cc1", "lipid storage change, negative = inhibition": "inconclusive: 15.5%"}
{"molecule": "Nc1nc(-c2ccc(Cl)cc2)nn1C(=O)c1cccnc1", "Potency": "inconclusive: 0.103 µM [activator, full curve, poor fit]"}
{"molecule": "FC(F)(F)c1cccnc1N1CCN(c2ncnc3nc[nH]c23)CC1", "lipid storage change, negative = inhibition": "inconclusive: 45.9%"}
{"molecule": "Cc1cc(Cn2nc(C(=O)NCc3cccc(Br)c3)cc2-c2ccccc2)on1", "Potency": "active: 13 µM"}
{"molecule": "CNc1ccccc1C(C)(C)c1cc(-c2ccc(F)cc2)no1", "lipid storage change, negative = inhibition": "inconclusive: -21.2%"}
{"molecule": "O=C(CCCC(=O)c1ccccc1)Nc1ccc(O)cc1", "lipid storage change, negative = inhibition": "inconclusive: -16%"}
{"molecule": "COc1ccc(-c2cc3ccccc3[nH]2)cc1", "lipid storage change, negative = inhibition": "inconclusive: -17.8%"}
{"molecule": "CC(NC(=O)COc1ccccc1-c1ccccc1)c1ccccc1", "note": "(stereo not given)", "lipid storage change, negative = inhibition": "inconclusive: -74.6%"}
{"molecule": "COc1cccc(OC)c1C(=O)NC(=O)NNc1cc(C(F)(F)F)cc(C)n1", "lipid storage change, negative = inhibition": "inconclusive: 7.25%"}
{"molecule": "Cc1ccc(C)c(S(=O)(=O)NCC(=O)N2CCCC2)c1", "Potency": "inconclusive: 29.1 µM [activator, single point]"}
{"molecule": "NS(=O)(=O)c1cccc(NC(=O)CCCC2CCCCC2)c1", "lipid storage change, negative = inhibition": "inconclusive: 21.2%"}
{"molecule": "Cc1ccc(N(CC(=O)N2CCCCC2)S(=O)(=O)c2ccc(C)cc2)cc1", "lipid storage change, negative = inhibition": "inconclusive: -14%"}
{"molecule": "Cc1ccc(NC(=O)CSc2nn(-c3ccc(Cl)cc3)c(=S)s2)cc1S(=O)(=O)N(C)C", "lipid storage change, negative = inhibition": "inconclusive: -91.3%"}
